# According to PubChem BioAssay (Tox21):
# Several values for one entry are separate records, joined by “and”; a condition that tells them apart may be missing. Equal values may be shown once. This list holds what a sample rich in hits left over. Inconclusive results are not listed. Activity calls are given as the source filed them. Calls follow the shape of the dose curve; as a rule, active = well fitted cell-killing curve with a large enough effect in the repeat runs; inconclusive = weak or mixed curves, or effect the other way; inactive = flat fitted curve, though single readings scatter.
# Assay: cAMP Responsive Elements (CRE) small molecule antagonists, cell-based qHTS assay: qHTS cell viability counter screen (AID 2060913); also: nearly all actives have a fitted effect of over 40% in size
# Settings: CRE-bla HEK293T viability, CellTiter-Glo luminescence, 5 h; at 92.4 µM (top of the series)
# From the text: (§1) U.S. Tox21 Program National Center for Advancing Translational Sciences [NCATS] Division of Preclinical Innovation [DPI] U.S. Environmental Protection Agency [EPA] National Institutes of Environmental Health Sciences [NIEHS] National Toxicology Program [NTP] U.S. Food and Drug Administration [FDA] Tox21 Assay Overview: CREB (cyclic-AMP Responsive Element Binding Protein) is a cellular transcription factor. It binds to certain DNA sequences called cAMP Responsive Elements (CRE) and regulates the transcription of the genes. […] This cell line can be used to find agonists/antagonists of the cyclic AMP signaling pathway. The activation of the report gene under culture conditions can be detected by fluorescence intensity. This cell line has been used to screen the Tox21 10K compound library to identify agonists that induce oxidative stress. The cytotoxicity of the Tox21 compound library against the CRE-bla cell line was tested in parallel by measuring the cell viability using CellTiter-Glo assay (Promega, Madison, WI) in the same wells.
# Tox21 Assay Protocol Summary: CRE-bla Hek 293T cells were suspended in assay medium (DMEM containing 10% dialyzed FBS, 0.1 mM NEAA, 1 mM sodium pyruvate and 25 mM HEPES) and dispensed at 2,000 cells/4 uL /well into 1536-well black wall/clear bottom plates using a Multidrop Combi (ThermoFisher Scientific, Waltham, MA) dispenser. After the assay plates were incubated at 37 C/5% CO2 for 18 hrs, 23 nL of compounds dissolved in DMSO, positive controls or DMSO only was transferred to the assay plate by a pintool workstation (Kalypsys, San Diego, CA), followed by addition of 1 uL of 1.25uM NKH477 (0.25 uM as final concentration) in assay medium using a Flying Reagent Dispenser (Aurora Discovery, San Diego, CA). The plates were incubated at 37 C and 5% CO2 for 3 hrs. Then 1 uL of LiveBLAzer B/G FRET substrate (Invitrogen, Carlsbad, CA) was added to each well using Bioraptr Flying Reagent Dispenser (FRD, Aurora Discovery, San Diego, CA). The plates were incubated at room temperature for 2 h, then fluorescence intensities were measured using an Envision plate reader (PerkinElmer, Shelton, CT) at Excitation 405nm, Emission 460nm and 530nm. The % activity was determined from the ratio of 460nm/530nm. For cell viability readout that measures cytotoxicity, 4 uL /well of CellTiter-Glo reagent was added into the assay plates using Bioraptr FRD. After 30 min incubation at room temperature, the luminescence intensity in the assay plates was measured using a ViewLux (PerkinElmer, Shelton, CT) plate reader.
# % is scaled to controls: 0 for no effect and ±100 for the full control effect.
row,SMILES,"viability change, negative = cytotoxic"
1,CC(=O)N(C)C,inactive: 0.574% and inactive: -8.9%
2,CCCCCCCC1CCC(=O)O1 (stereo not given),inactive: 1.48%
3,COc1ccc2ccccc2c1,inactive: -5.65%
4,O=C1Cc2ccccc2C1,inactive: 21.4%
5,CS(=O)(=O)c1ccc([C@@H](CC2CCCC2)C(=O)Nc2cnccn2)cc1Cl,inactive: -13.9%

# Assay: cAMP Responsive Elements (CRE) small molecule agonists, cell-based qHTS assay: qHTS cell viability counter screen (AID 2060914);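 also: viability read after 3 h of compound exposure; nearly all actives have a fitted effect of over 50% in size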
# Settings: CRE-bla HEK293T viability, CellTiter-Glo luminescence, 5 h; at 92.4 µM (top of the series)
# From the text: National Center for Advancing Translational Sciences [NCATS]
# Division of Preclinical Innovation [DPI]
# U.S. Environmental Protection Agency [EPA]
# National Institutes of Environmental Health Sciences [NIEHS]
# National Toxicology Program [NTP]
# U.S. Food and Drug Administration [FDA]
# as §1, with “CREB” for “U.S. Tox21 Program National Center for Advancing Translational Sciences [NCATS] Division of Preclinical Innovation [DPI] U.S. Environmental Protection Agency [EPA] National Institutes of Environmental Health Sciences [NIEHS] National Toxicology Program [NTP] U.S. Food and Drug Administration [FDA] Tox21 Assay Overview: CREB”
# Tox21 Assay Protocol Summary:
# CRE-bla Hek 293T cells were suspended in assay medium (DMEM containing 10% dialyzed FBS, 0.1 mM NEAA, 1 mM sodium pyruvate and 25 mM HEPES) and dispensed at 2,000 cells/5 uL /well into 1536-well black wall/clear bottom plates using a Multidrop Combi (ThermoFisher Scientific, Waltham, MA) dispenser. After the assay plates were incubated at 37 C/5% CO2 for 18 hrs, 23 nL of compounds dissolved in DMSO, positive controls or DMSO only was transferred to the assay plate by a pintool workstation (Kalypsys, San Diego, CA). After the plates were incubated at 37 C/5% CO2 for 3 hrs, 1 uL of LiveBLAzer B/G FRET substrate (Invitrogen, Carlsbad, CA) was added to each well using Bioraptr Flying Reagent Dispenser (FRD, Aurora Discovery, San Diego, CA). The plates were incubated at room temperature for 2 h, then fluorescence intensities were measured using an Envision plate reader (PerkinElmer, Shelton, CT) at Excitation 405nm, Emission 460nm and 530nm. The % activity was determined from the ratio of 460nm/530nm. For cell viability readout that measures cytotoxicity, 4 uL /well of CellTiter-Glo reagent was added into the assay plates using Bioraptr FRD. After 30 min incubation at room temperature, the luminescence intensity in the assay plates was measured using a ViewLux (PerkinElmer, Shelton, CT) plate reader.
row,SMILES,"activity change, negative = cytotoxicity"
1,CC(=O)N(C)C,inactive: 1.57% and inactive: 0.419%
2,CCCCCCCC1CCC(=O)O1 (stereo not given),inactive: 6.63%
3,COc1ccc2ccccc2c1,inactive: -10.2%
4,O=C1Cc2ccccc2C1,inactive: -7.4%
5,CS(=O)(=O)c1ccc([C@@H](CC2CCCC2)C(=O)Nc2cnccn2)cc1Cl,inactive: -4.17%
